These are yes or no findings as the source states them, for the method shown. In cells and extracts the contact can be indirect. Some entries that bind do so weakly or less than the wild type. Where a sequence is shown, tags or fusion partners need not be part of it.

Protein sequences, listed by entry. Tags and fused reporters are not part of them.
UniProt P24385: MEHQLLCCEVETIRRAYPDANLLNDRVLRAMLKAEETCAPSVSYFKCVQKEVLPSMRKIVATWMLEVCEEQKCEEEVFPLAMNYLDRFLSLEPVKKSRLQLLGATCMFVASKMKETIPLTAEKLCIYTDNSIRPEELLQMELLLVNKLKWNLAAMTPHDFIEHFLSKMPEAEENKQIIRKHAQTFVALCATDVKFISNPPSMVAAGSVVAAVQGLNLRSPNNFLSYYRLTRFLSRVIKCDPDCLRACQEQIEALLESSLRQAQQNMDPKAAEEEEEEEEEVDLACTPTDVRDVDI
UniProt P45973: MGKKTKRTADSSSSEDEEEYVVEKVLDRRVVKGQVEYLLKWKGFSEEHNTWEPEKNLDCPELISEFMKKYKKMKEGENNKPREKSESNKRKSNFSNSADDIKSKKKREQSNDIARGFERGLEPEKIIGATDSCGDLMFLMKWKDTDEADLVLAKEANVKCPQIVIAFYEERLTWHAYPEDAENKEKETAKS

The target of assay [1] is CyclinD1 (human (endogenous in HuccT-1, HCCC9810, HIBEpic)) (UniProt P24385). Nature of the assay: co-IP; endogenous proteins, HuccT-1 and HCCC9810 cell lysates; IP lysis buffer (50 mM Tris-HCl pH 7.4, 150 mM NaCl, 1 mM EDTA, 1% NP-40, 10% glycerin); 2.5 μg antibody with Protein A + G agarose overnight at 4 °C; immunoblot.
Assay [2] addresses heterochromatin protein 1α (HP1α) (human (endogenous in HuccT-1, HCCC9810, HIBEpic)) (UniProt P45973). The assay is described as above.

Consider “heterochromatin protein 1α (HP1α) (from UniProt P45973 1-191)”, for which, in assay [1], the binding result is reported as “binds”.

B1: histone methyltransferase Suv39H1 (enzyme, UniProt O43463 1-412)
chain: MAENLKGCSVCCKSSWNQLQDLCRLAKLSCPALGISKRNLYDFEVEYLCDYKKIREQEYYLVKWRGYPDSESTWEPRQNLKCVRILKQFHKDLERELLRRHHRSKTPRHLDPSLANYLVQKAKQRRALRRWEQELNAKRSHLGRITVENEVDLDGPPRAFVYINEYRVGEGITLNQVAVGCECQDCLWAPTGGCCPGASLHKFAYNDQGQVRLRAGLPIYECNSRCRCGYDCPNRVVQKGIRYDLCIFRTDDGRGWGVRTLEKIRKNSFVMEYVGEIITSEEAERRGQIYDRQGATYLFDLDYVEDVYTVDAAYYGNISHFVNHSCDPNLQVYNVFIDNLDERLPRIAFFATRTIRAGEELTFDYNMQVDPVDMESTRMDSNFGLAGLPGSPKKRVRIECKCGTESCRKYLF
As to B1, the binding result in assay [2] and in assay [1] was “binds” in each case.

(Values after PMC6781400.)
